# Source: patent publication US20180282367 (published 2018)
# “And” between values parts separate entries of the source, which are not always exact repeats. Identical values can stand only once.
# Experiment: general procedure: Fmoc solid-phase peptide synthesis; 2-CTC resin (Examples 1 and 2); carboxylic resin (comparative Example 3); DIC/HOBt
substance,measurement,setting,value
"C^4,6,S^1-Cyclo(N-(3-sulfanylpropanoyl)-D-tryptophyl-L-isoleucyl-L-alloisoleucyl-L-asparaginyl-L-2-aminobutanoyl-N-methyl-L-ornithinol)",crude HPLC purity,"cyclisation step, run 1",85.24%
same,crude HPLC purity,"cyclisation step, run 2",86.4%
same,crude HPLC purity,"whole synthesis, run 1",11.8%
same,crude HPLC purity,"whole synthesis, run 2",1.8%
same,crude HPLC purity,"whole synthesis, run 3",10.4%
same,crude yield,"whole synthesis, on resin loading, run 1",around 90%
same,crude yield,"whole synthesis, on resin loading, run 2",8.3% and 13.3%
same,crude yield,"whole synthesis, run 1",92.4%
same,crude yield,"whole synthesis, run 2",15.1%
